# Values joined by “and” are separate entries in the source; they are usually repeats but may differ in a detail not shown here. Identical values can stand only once. Inconclusive results, whose numbers are uncertain, are shown with a selection of clear calls. For some assays here: A potency beside an inconclusive call is a rough fit, not a confirmed value. Where a structure was tested more than once in an assay, its records may differ in their call. Active and inactive are the calls of the source. Unless noted, calls follow the shape of the full dose curve.
# Chains of the proteins cited; added tags and fusions are not shown. Lines headed by an entry give the natural chain unless they say otherwise; changes in a name come on top.
# UniProt P28223, whole entry, looked up: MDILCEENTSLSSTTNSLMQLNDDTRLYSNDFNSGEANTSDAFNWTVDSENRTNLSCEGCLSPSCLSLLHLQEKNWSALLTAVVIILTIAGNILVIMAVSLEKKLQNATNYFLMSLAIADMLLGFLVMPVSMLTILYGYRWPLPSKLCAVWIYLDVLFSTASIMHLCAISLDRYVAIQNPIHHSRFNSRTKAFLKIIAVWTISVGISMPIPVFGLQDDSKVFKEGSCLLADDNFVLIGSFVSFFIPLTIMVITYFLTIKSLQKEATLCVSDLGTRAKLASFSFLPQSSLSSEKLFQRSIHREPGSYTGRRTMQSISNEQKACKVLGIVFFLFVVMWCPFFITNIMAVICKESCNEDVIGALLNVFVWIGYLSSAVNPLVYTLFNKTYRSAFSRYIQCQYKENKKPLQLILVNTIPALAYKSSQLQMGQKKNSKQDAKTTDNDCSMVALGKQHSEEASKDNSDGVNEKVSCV
# UniProt P11229: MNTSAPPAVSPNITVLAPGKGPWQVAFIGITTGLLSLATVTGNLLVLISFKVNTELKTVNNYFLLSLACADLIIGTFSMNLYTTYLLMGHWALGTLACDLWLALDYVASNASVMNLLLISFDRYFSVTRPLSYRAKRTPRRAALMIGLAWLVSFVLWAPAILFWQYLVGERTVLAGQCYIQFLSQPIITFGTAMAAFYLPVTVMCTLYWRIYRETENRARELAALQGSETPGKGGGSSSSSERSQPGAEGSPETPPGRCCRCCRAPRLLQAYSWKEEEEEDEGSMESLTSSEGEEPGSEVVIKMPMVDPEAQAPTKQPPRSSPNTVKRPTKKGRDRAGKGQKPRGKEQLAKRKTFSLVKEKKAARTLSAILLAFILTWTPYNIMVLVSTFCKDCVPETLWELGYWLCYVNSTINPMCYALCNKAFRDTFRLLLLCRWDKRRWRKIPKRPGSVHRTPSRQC
# UniProt P14416, whole entry, looked up: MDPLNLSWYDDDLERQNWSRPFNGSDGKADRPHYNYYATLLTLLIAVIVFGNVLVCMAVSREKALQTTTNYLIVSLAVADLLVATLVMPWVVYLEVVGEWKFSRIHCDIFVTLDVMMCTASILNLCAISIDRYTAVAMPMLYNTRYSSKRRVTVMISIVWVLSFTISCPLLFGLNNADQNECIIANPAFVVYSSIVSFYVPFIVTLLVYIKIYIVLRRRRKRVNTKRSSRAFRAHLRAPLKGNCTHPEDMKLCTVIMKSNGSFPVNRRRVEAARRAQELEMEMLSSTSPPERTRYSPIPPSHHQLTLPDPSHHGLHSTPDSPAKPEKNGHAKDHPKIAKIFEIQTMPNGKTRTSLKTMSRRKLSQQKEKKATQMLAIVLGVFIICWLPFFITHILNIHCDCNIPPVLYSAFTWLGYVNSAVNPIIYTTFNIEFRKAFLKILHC
# Columns and labels:
# [1] = Nuclear factor erythroid 2-related factor 2/antioxidant responsive element (Nrf2/ARE) small molecule agonists: luciferase reporter gene qHTS assay in human keratinocytes (AID 1919969); also: nearly all actives have a fitted effect of over 35% in size; also: potency is read from the fitted curve at half-maximal effect
# [2] = p53 small molecule agonists, cell-based qHTS assay with human liver microsomes: qHTS cell viability counter screen (AID 1963579); also: potency is read from the fitted curve at half-maximal effect; nearly all actives have a fitted effect of over 45% in size
# Summary of the method: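 Cells carrying the p53 response-element beta-lactamase reporter are treated for 16 h at 37 C with test compounds in the presence of human liver microsomes and NADPH (both 0.5 mg/mL final); ATP-based CellTiter-Glo luminescence then reports viability.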
# [3] = p53 small molecule agonists, cell-based qHTS assay with rat liver microsomes: qHTS cell viability counter screen (AID 1963580); also: nearly all actives have a fitted effect of over 45% in size; also: potency is read from the fitted curve at half-maximal effect
# Summary of the method: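 HCT-116 p53RE-bla, 4,000 cells/well, 5 h pre-incubation; cpd + rat liver microsomes 0.5 mg/mL + NADPH 0.5 mg/mL (final); 16 h, 37 C; CellTiter-Glo, 30 min RT; luminescence.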
# [4] = p53 small molecule agonists, cell-based qHTS assay: qHTS cell viability counter screen (AID 1963581); also: potency is read from the fitted curve at half-maximal effect; nearly all actives have a fitted effect of over 45% in size
# Summary of the method: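 p53RE-bla HCT-116 cells, compounds added 5 h after plating and incubated 16 h at 37 C. Cytotoxicity measured in the same wells as intracellular ATP by CellTiter-Glo luminescence after 30 min at room temperature.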
# [5] = p53 small molecule agonists, cell-based qHTS assay (AID 1963582; active = well fitted activation curve with a large enough effect in the signal ratio in the repeat runs, not every such curve was filed as active; inconclusive = weak or mixed curves; the % refers to the signal ratio; also: potency is read from the fitted curve at half-maximal effect); conditions: HCT-116 p53RE-bla reporter, beta-lactamase FRET ratio, 16 h; activation: at 66 µM (top of the series) unless noted
# Summary of the method: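 p53RE-bla reporter cells, compounds added in DMSO after 5 h plating, incubated 16 h at 37 C. Beta-lactamase read via 2 h room-temperature LiveBLAzer B/G FRET substrate, fluorescence intensity.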
# [6] = target: 5-hydroxytryptamine receptor 2A (Homo sapiens) (UniProt P28223); experiment: 5-hydroxytryptamine receptor 2A (HTR2A) small molecule antagonists, cell-based qHTS assay (AID 1963586); also: potency is read from the fitted curve at half-maximal effect; nearly all actives have a fitted effect of over 45% in size
# Summary of the method: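 Antagonist-mode intracellular calcium assay: DOI (4 nM) added after 5 min compound pre-incubation at room temperature to dye-loaded HTR2A-CHO cells. Fluorescence followed for 3 min, sampled every second.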
# [7] = target: 5-hydroxytryptamine receptor 2A (Homo sapiens) (UniProt P28223); experiment: 5-hydroxytryptamine receptor 2A (HTR2A) small molecule agonists, cell-based qHTS assay (AID 1963587); conditions: HTR2A-CHO cells, calcium flux fluorescence, agonist mode; activation: at 76.8 µM (top of the series); also: nearly all actives have a fitted effect of over 30% in size; also: potency is read from the fitted curve at half-maximal effect; as to activation: % is scaled to controls: 0 for no effect and ±100 for the full control effect
# Summary of the method: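 Kinetic calcium-flux fluorescence (2 min, 1 sec intervals) after compound addition in agonist mode. HTR2A-CHO cells were cultured 18 h, then dye-loaded 1 h at 37 C.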
# [8] = target: Muscarinic acetylcholine receptor M1 (Homo sapiens) (UniProt P11229); experiment: Cholinergic receptor muscarinic 1 (CHRM1) small molecule antagonists, cell-based qHTS assay (AID 1963588); also: potency is read from the fitted curve at half-maximal effect; nearly all actives have a fitted effect of over 40% in size
# Summary of the method: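 CHRM1-CHO calcium-flux assay, antagonist mode. Cells were seeded 18 h, dye-loaded 1 h at 37 C and given compound for 5 min at RT, then acetylcholine was added at 50nM. FDSS fluorescence was read 3 min; 15 concentrations, three runs.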
# [9] = cAMP Responsive Elements (CRE) small molecule agonists, cell-based qHTS assay (AID 1963590); conditions: CRE-bla HEK293T, beta-lactamase FRET ratio, 3 h; activation: at 92.4 µM (top of the series) unless noted; also: potency is read from the fitted curve at half-maximal effect
# Summary of the method: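 CRE-bla HEK 293T cells, 2,000/well in DMEM with 10% dialyzed FBS and 25 mM HEPES, pre-incubated 18 h at 37 C, then exposed to compound 3 h at 37 C. Beta-lactamase reporter read with LiveBLAzer B/G FRET substrate after 2 h at room temperature.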
# [10] = target: Beta-2 adrenergic receptor (Homo sapiens) (UniProt P07550); experiment: Adrenergic beta2 receptor (ADRB2) small molecule antagonists, cell-based qHTS assay (AID 1963592); conditions: CHO-ADRB2 cells, isoproterenol-stimulated cAMP HTRF ratio, 0.5 h; activity change, negative = inhibition: at 92.4 µM (top of the series) unless noted; also: nearly all actives have a fitted effect of over 50% in size; also: potency is read from the fitted curve at half-maximal effect; as to activity change, negative = inhibition: % is scaled to controls: 0 for no effect and ±100 for the full control effect
# Summary of the method: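 Cells (CHO, stable ADRB2 overexpression) incubated 18-20hr at 37C; compounds added from DMSO; agonist mix (1nM isoproterenol, 100uM IBMX, 25uM Ro-20-1724) added; 0.5hr RT; d2-cAMP and anti-cAMP-cryptate added; 1hr RT; 665/615 nm read.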
# [11] = target: Beta-2 adrenergic receptor (Homo sapiens) (UniProt P07550); experiment: Adrenergic beta2 receptor (ADRB2) small molecule agonists, cell-based qHTS assay (AID 1963593); conditions: CHO-ADRB2 cells, cAMP HTRF, 30 min; also: potency is read from the fitted curve at half-maximal effect;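 as to activation: CHO cells stably overexpressing human ADRB2; % is scaled to controls: 0 for no effect and ±100 for the full control effect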
# Summary of the method: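 CHO cells stably over-expressing ADRB2 were plated overnight at 37C, then dosed with compounds plus a stimulation mix containing 100uM IBMX and 25uM Ro-20-1724 for 0.5hr at room temperature. cAMP was measured by HTRF competition, 1hr.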
# [12] = target: D(2) dopamine receptor (Homo sapiens) (UniProt P14416); experiment: Dopamine D2 receptor (DRD2) small molecule antagonists, cell-based qHTS assay (AID 1963595; active = well fitted inhibition curve with a large enough effect in the signal ratio in the repeat runs, with a control signal flat; inconclusive = weak or mixed curves, or effect the other way; the % refers to the signal ratio; also: potency is read from the fitted curve at half-maximal effect); conditions: HEK293-DRD2 cAMP HTRF antagonist mode; activity change, negative = inhibition: at 92.4 µM (top of the series) unless noted
# Summary of the method: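 Human DRD2 antagonist qHTS measuring cAMP by HTRF. The cells are exposed to compound for 10 min, then to NKH477 (200 nM) and quinpirole (12 nM) for 30 min at RT, with Ro20-1724 (0.1 mM) present throughout.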
# [13] = p53 small molecule agonists, cell-based qHTS assay with human liver microsomes (AID 1963577); conditions: HCT-116 p53RE-bla with human liver microsomes, ratio, 16 h; activation: at 66 µM (top of the series) unless noted; also: % is scaled to controls: 0 for no effect and ±100 for the full control effect
# Summary of the method: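 Compounds act here after metabolic activation: human liver microsomes and NADPH, both at 0.5 mg/mL final, were co-added to p53RE-bla cells. Incubation ran 16 h at 37 C, followed by LiveBLAzer detection.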
# [14] = p53 small molecule agonists, cell-based qHTS assay with rat liver microsomes (AID 1963578); conditions: HCT-116 p53RE-bla, beta-lactamase ratio, 16 h; activation: at 66 µM (top of the series) unless noted; also: potency is read from the fitted curve at half-maximal effect
# Summary of the method: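 Read-out is beta-lactamase reporter fluorescence (LiveBLAzer, 2 h, room temperature, dark) in p53RE-bla cells treated 16 h at 37 C with compound, rat liver microsomes and NADPH, both 0.5 mg/mL final.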
# [15] = cAMP Responsive Elements (CRE) small molecule antagonists, cell-based qHTS assay (AID 1963591; active = well fitted inhibition curve with a large enough effect in the signal ratio in the repeat runs, not every such curve was filed as active; inconclusive = weak or mixed curves, or effect the other way; the % refers to the signal ratio; also: potency is read from the fitted curve at half-maximal effect); conditions: CRE-bla HEK293T, beta-lactamase FRET ratio; activity change, negative = inhibition: at 92.4 µM (top of the series) unless noted
# Summary of the method: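 CRE-bla HEK293T cells plated 18 h, then given compound plus NKH477 at 0.25 uM final for 3 h at 37C. Beta-lactamase reporter read with LiveBLAzer B/G FRET substrate after 2 h at room temperature.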
# [16] = activation: at 92.4 µM (top of the series) unless noted
structure (smiles),measurement,setting,value
CCC(C)(C)c1ccc(O)c(C(C)(C)CC)c1,Potency,[1],"inconclusive: 6.04 µM [activator, single point]"
same,Potency,[2],active: 45.3 µM and active: 25.7 µM
same,Potency,[3],active: 25.7 µM
same,Potency,[4],active: 18 µM and active: 22.9 µM
same,Potency,[5],"inconclusive: 28.6 µM [falling, partial curve] and inconclusive: 32.4 µM [falling, partial curve]"
same,Potency,[6],"inconclusive: 41.6 µM [inhibitor, single point] and inconclusive: 18.8 µM [inhibitor, single point]"
same,Potency,[7],"inconclusive: 30.6 µM [activator, partial curve] and inconclusive: 38.9 µM [activator, partial curve]"
same,Potency,[8],"inconclusive: 29.8 µM [inhibitor, partial curve, poor fit]"
same,Potency,[9],"inconclusive: 9.58 µM [rising, full curve] and inconclusive: 12.2 µM [rising, full curve]"
same,"activity change, negative = inhibition",[10],inconclusive: -20.8%
same,Potency,[11]; [16],"inconclusive: 67.8 µM [inhibitor, single point] and inconclusive: 8.63 µM [inhibitor, full curve, poor fit]"
same,Potency,[12],active: 43.3 µM
NC(=S)C(N)=S,Potency,[1],"inconclusive: 68.6 µM [activator, single point]"
same,activation,[13],inconclusive: 23.3%
same,activation,[11]; [16],inconclusive: 2.5%
CCN(CC)c1nc(C)cc(OP(=S)(OC)OC)n1,Potency,[1],"inconclusive: 68.6 µM [activator, single point]"
same,Potency,[14],"inconclusive: 11.5 µM [fluorescent, partial curve]"
same,Potency,[7],inactive
same,activation,[11]; [16],inconclusive: 13.2%
O=[N+]([O-])c1ccc2c3c(cccc13)CC2,Potency,[1],inactive
same,Potency,[14],"inconclusive: 51.3 µM [fluorescent, single point]"
same,Potency,[8],"inconclusive: 42.1 µM [inhibitor, partial curve]"
same,Potency,[15],"inconclusive: 22.7 µM [activator, full curve, poor fit]"
same,activation,[11]; [16],inconclusive: 1.04%
Clc1cccc(SC2CCNCC2)n1,Potency,[1],inactive
same,Potency,[2],"inconclusive: 1.26 µM [rising, full curve, poor fit]"
same,Potency,[3],inactive
same,Potency,[4],"inconclusive: 1.58 µM [rising, full curve, poor fit]"
same,Potency,[8],"inconclusive: 18.3 µM [inhibitor, single point]"
same,Potency,[11]; [16],"inconclusive: 6.68 µM [inhibitor, full curve]"
O=C=Nc1ccc(Cl)cc1,Potency,[1],active: 68.6 µM
same,Potency,[2],"inconclusive: 22.9 µM [cytotoxic, partial curve, poor fit]"
same,Potency,[4],"inconclusive: 51.3 µM [cytotoxic, partial curve, poor fit]"
same,Potency,[5],inactive
same,Potency,[9],inactive
same,Potency,[15],inactive
same,Potency,[11]; [16],inactive
Clc1ccc(COC(Cn2ccnc2)c2ccc(Cl)cc2Cl)cc1 (stereo not drawn),Potency,[1],"active: 22.7 µM and inconclusive: 15.3 µM [activator, single point] and active: 13.3 µM"
same,Potency,[14],"inconclusive: 51.1 µM [fluorescent, partial curve, poor fit]"
same,Potency,[3],"inconclusive: 42.7 µM [cytotoxic, single point] and inconclusive: 45.6 µM [cytotoxic, single point]"
same,Potency,[9],inactive
same,Potency,[15],active: 50.8 µM and inconclusive: 56.7 µM [inhibitor] and inconclusive: 29.8 µM [inhibitor]
same,Potency,[10],"inconclusive: 32.1 µM [inhibitor, single point] and inconclusive: 68.3 µM [inhibitor, single point]"
same,Potency,[11]; [16],inconclusive: 57 µM [inhibitor]
same,activation,[11]; at 42.5 µM (top of the series),inconclusive: -38.1%
same,activation,[11]; at 92.4 µM (top of the series),inconclusive: -88.2%
same,Potency,[12],"inconclusive: 57 µM [inhibitor] and inconclusive: 68.3 µM [inhibitor, single point]"
same,"activity change, negative = inhibition",[12],inconclusive: -39.8% [at 42.5 µM]
CCOP(=S)(OCC)OP(=S)(OCC)OCC,Potency,[1],"inconclusive: 62.8 µM [activator, single point]"
same,Potency,[14],"inconclusive: 23.5 µM [fluorescent, partial curve] and inconclusive: 18.2 µM [fluorescent, single point]"
same,Potency,[3],inactive
same,Potency,[5],"inconclusive: 52.7 µM [rising, single point]"
same,Potency,[6],"inconclusive: 27.3 µM [inhibitor, partial curve, poor fit]"

# Reference: PubChem BioAssay (Tox21)
